From publication PMC8832971
No constants are given. Whether binding was seen depends on the method and setting. Binding seen in cells or lysates may run through a third protein. Binding calls can cover weak binding; strength is not graded here.

Chains of the proteins cited; added tags and fusions are not shown. Lines headed by an entry give the natural chain unless they say otherwise; changes in a name come on top.
UniProt A0ABM5XX51: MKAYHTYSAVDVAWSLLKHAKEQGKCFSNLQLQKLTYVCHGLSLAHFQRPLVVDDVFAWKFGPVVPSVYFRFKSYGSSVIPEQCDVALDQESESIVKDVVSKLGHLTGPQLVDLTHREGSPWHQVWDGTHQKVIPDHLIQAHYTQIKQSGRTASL
UniProt A0A097IIB1: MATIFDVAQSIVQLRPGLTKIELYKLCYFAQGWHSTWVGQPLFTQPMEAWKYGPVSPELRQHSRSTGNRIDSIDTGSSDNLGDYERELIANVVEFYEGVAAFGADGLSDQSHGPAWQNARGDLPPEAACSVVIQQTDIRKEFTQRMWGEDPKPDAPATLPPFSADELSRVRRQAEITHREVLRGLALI
UniProt A0ABR4RQ49: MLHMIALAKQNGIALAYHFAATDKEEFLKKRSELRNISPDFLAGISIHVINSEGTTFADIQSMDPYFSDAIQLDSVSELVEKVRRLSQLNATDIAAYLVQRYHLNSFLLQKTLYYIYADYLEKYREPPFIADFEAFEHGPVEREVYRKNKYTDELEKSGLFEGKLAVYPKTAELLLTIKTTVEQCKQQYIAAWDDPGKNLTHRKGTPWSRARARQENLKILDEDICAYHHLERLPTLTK

Legend:
Assay in all cases: pull-down; untagged PanA coexpressed with N-terminally His6- or His10-SUMO-tagged cognate PanT in E. coli BL21 DE3; filtered lysate incubated 30 min with Ni-beads in 25 mM Hepes pH 7.5, 300 mM NaCl, 10 mM imidazole, 2 mM CaCl2, 2 mM β-ME; eluted with 300 mM imidazole; 15% SDS-PAGE, stained
[1] = target: Vibrio harveyi CapRel toxSAS toxin (Vibrio harveyi)
[2] = target: Corynebacterium doosanense Fic/Doc toxin (Corynebacterium doosanense)
[3] = target: Lactobacillus animalis PhRel2 toxSAS toxin (Lactobacillus animalis)

Q: For “Vibrio harveyi PanA antitoxin (from UniProt A0ABM5XX51)”, which binding [1] is on record?
A: The binding was “binds”.

Q: “Corynebacterium doosanense PanA antitoxin (from UniProt A0A097IIB1)” was tested. Which binding [2] did it give?
A: The binding was “binds”.

Q: For “Lactobacillus animalis PanA antitoxin (from UniProt A0ABR4RQ49)”, which binding [3] is on record?
A: Its binding is “binds”.
